{"source": "PubChem BioAssay AID686938 (Drosophila RNAi Screening Center, 2013)", "purpose": "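Fly genes required for calcium entry once internal stores are emptied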 (primary screen)", "system": "Drosophila S2R+ cells", "reagent": "long dsRNA against Drosophila genes, about 0.25 µg dsRNA per well, roughly 10,000 cells", "duration": "5 days of knock-down before the calcium assay", "challenge": "thapsigargin (SERCA pump blocker) to empty calcium stores; entry signal taken 4 min after adding it", "measured": "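Duplicate raw fluo-4 intensities per well from a plate reader, at rest and four minutes after thapsigargin emptied calcium stores; entry-to-rest ratio filled for only some wells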", "scale": "calcium entry signal: higher = stronger calcium signal after store depletion; resting calcium signal: higher = higher resting calcium signal", "units": "calcium entry signal in fluorescence units; resting calcium signal in fluorescence units", "active means": "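Called when the plate z-score of the entry-to-rest ratio, mean of duplicates, falls below −3; wells with low overall dye signal (Fmax z below −2) or more than five off-targets excluded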", "calls": "active = strongly reduced calcium entry; inactive = no strong reduction", "note": "In all, the deposit lists about 23,000 reagents; below is an unselected part of those that have a named target and a result. In the full data, 75 (0.33%) got an active call. 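Raw plate signals without normalisation; calls rest on plate z-scores that were not deposited; ratio present for only 364 wells.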 The numbers tell different reagents against one gene apart. Reagent sequences are not shown. Not stated in the record: the dose of the treatment."}
{"gene":"CG15773","reagent":1,"calcium entry signal, replicate 1":3.11e7,"calcium entry signal, replicate 2":4.71e7,"resting calcium signal, replicate 1":1.54e7,"resting calcium signal, replicate 2":2.02e7,"Call":"inactive"}
{"gene":"CG43610","reagent":1,"calcium entry signal, replicate 1":2.99e7,"calcium entry signal, replicate 2":3.66e7,"resting calcium signal, replicate 1":1.64e7,"resting calcium signal, replicate 2":1.57e7,"Call":"inactive"}
{"gene":"COX4L","reagent":1,"calcium entry signal, replicate 1":3.52e7,"calcium entry signal, replicate 2":3.82e7,"resting calcium signal, replicate 1":1.90e7,"resting calcium signal, replicate 2":1.72e7,"Call":"inactive"}
{"gene":"Rsbp15","reagent":1,"calcium entry signal, replicate 1":1.89e7,"calcium entry signal, replicate 2":2.43e7,"resting calcium signal, replicate 1":1.07e7,"resting calcium signal, replicate 2":1.17e7,"Call":"inactive"}
{"gene":"Ace","reagent":1,"calcium entry signal, replicate 1":3.74e7,"calcium entry signal, replicate 2":3.50e7,"resting calcium signal, replicate 1":1.81e7,"resting calcium signal, replicate 2":1.53e7,"Call":"inactive"}
{"gene":"Ace","reagent":2,"calcium entry signal, replicate 1":3.79e7,"calcium entry signal, replicate 2":4.50e7,"resting calcium signal, replicate 1":1.66e7,"resting calcium signal, replicate 2":1.93e7,"Call":"inactive"}
{"gene":"Sumo","reagent":1,"calcium entry signal, replicate 1":1.57e7,"resting calcium signal, replicate 1":1.48e7,"Call":"active"}
{"gene":"Ten-m","reagent":1,"calcium entry signal, replicate 1":2.87e7,"calcium entry signal, replicate 2":5.30e7,"resting calcium signal, replicate 1":1.49e7,"resting calcium signal, replicate 2":2.39e7,"Call":"inactive"}
{"gene":"Ten-m","reagent":2,"calcium entry signal, replicate 1":2.90e7,"calcium entry signal, replicate 2":4.44e7,"resting calcium signal, replicate 1":1.50e7,"resting calcium signal, replicate 2":2.05e7,"Call":"inactive"}
{"gene":"Vha100-4","reagent":1,"calcium entry signal, replicate 1":4.34e7,"calcium entry signal, replicate 2":4.47e7,"resting calcium signal, replicate 1":6.12e7,"resting calcium signal, replicate 2":2.25e7,"Call":"inactive"}
{"gene":"Klp68D","reagent":1,"calcium entry signal, replicate 1":4.48e7,"calcium entry signal, replicate 2":3.13e7,"resting calcium signal, replicate 1":3.12e7,"resting calcium signal, replicate 2":1.39e7,"Call":"inactive"}
{"gene":"Sbf","reagent":1,"calcium entry signal, replicate 1":3.74e7,"calcium entry signal, replicate 2":3.77e7,"resting calcium signal, replicate 1":1.78e7,"resting calcium signal, replicate 2":1.87e7,"Call":"inactive"}
{"gene":"CG8204","reagent":1,"calcium entry signal, replicate 1":3.49e7,"calcium entry signal, replicate 2":3.21e7,"resting calcium signal, replicate 1":1.75e7,"resting calcium signal, replicate 2":1.55e7,"Call":"inactive"}
{"gene":"CG33631","reagent":1,"calcium entry signal, replicate 1":3.55e7,"calcium entry signal, replicate 2":5.46e7,"resting calcium signal, replicate 1":1.69e7,"resting calcium signal, replicate 2":2.43e7,"Call":"inactive"}
{"gene":"Sps1","reagent":1,"calcium entry signal, replicate 1":3.12e7,"calcium entry signal, replicate 2":3.76e7,"resting calcium signal, replicate 1":1.51e7,"resting calcium signal, replicate 2":1.90e7,"Call":"inactive"}
{"gene":"Ald1","reagent":1,"calcium entry signal, replicate 1":2.03e7,"calcium entry signal, replicate 2":2.06e7,"resting calcium signal, replicate 1":1.37e7,"resting calcium signal, replicate 2":1.28e7,"Call":"inactive"}
{"gene":"CG31294","reagent":1,"calcium entry signal, replicate 1":4.73e7,"calcium entry signal, replicate 2":3.45e7,"resting calcium signal, replicate 1":2.83e7,"resting calcium signal, replicate 2":1.82e7,"Call":"inactive"}
{"gene":"CG41020 (retired record)","reagent":1,"calcium entry signal, replicate 1":3.02e7,"calcium entry signal, replicate 2":4.50e7,"resting calcium signal, replicate 1":1.50e7,"resting calcium signal, replicate 2":2.05e7,"Call":"inactive"}
{"gene":"Trm1","reagent":1,"calcium entry signal, replicate 1":4.12e7,"resting calcium signal, replicate 1":2.07e7,"Call":"inactive"}
{"gene":"CG42271","reagent":1,"calcium entry signal, replicate 1":2.83e7,"calcium entry signal, replicate 2":3.58e7,"resting calcium signal, replicate 1":1.43e7,"resting calcium signal, replicate 2":1.73e7,"Call":"inactive"}
{"gene":"CG42271","reagent":2,"calcium entry signal, replicate 1":5.26e7,"calcium entry signal, replicate 2":3.19e7,"resting calcium signal, replicate 1":2.74e7,"resting calcium signal, replicate 2":1.52e7,"Call":"inactive"}
{"gene":"CheB42c","reagent":1,"calcium entry signal, replicate 1":3.50e7,"calcium entry signal, replicate 2":3.70e7,"resting calcium signal, replicate 1":2.36e7,"resting calcium signal, replicate 2":1.71e7,"Call":"inactive"}
{"gene":"Jhbp15","reagent":1,"calcium entry signal, replicate 1":3.71e7,"calcium entry signal, replicate 2":4.51e7,"resting calcium signal, replicate 1":5.52e7,"resting calcium signal, replicate 2":1.88e7,"Call":"inactive"}
{"gene":"CG18661","reagent":1,"calcium entry signal, replicate 1":2.49e7,"calcium entry signal, replicate 2":3.29e7,"resting calcium signal, replicate 1":1.20e7,"resting calcium signal, replicate 2":1.44e7,"Call":"inactive"}
{"gene":"CROT","reagent":1,"calcium entry signal, replicate 1":3.47e7,"calcium entry signal, replicate 2":4.63e7,"resting calcium signal, replicate 1":1.67e7,"resting calcium signal, replicate 2":2.05e7,"Call":"inactive"}
{"gene":"CROT","reagent":2,"calcium entry signal, replicate 1":2.61e7,"calcium entry signal, replicate 2":4.21e7,"resting calcium signal, replicate 1":1.40e7,"resting calcium signal, replicate 2":1.59e7,"Call":"inactive"}
{"gene":"Cyp4ad1","reagent":1,"calcium entry signal, replicate 1":3.90e7,"calcium entry signal, replicate 2":3.11e7,"resting calcium signal, replicate 1":1.58e7,"resting calcium signal, replicate 2":1.48e7,"Call":"inactive"}

Records listed so far with an active call, once more:
{"gene":"Sumo","reagent":1,"calcium entry signal, replicate 1":1.57e7,"resting calcium signal, replicate 1":1.48e7,"Call":"active"}
